Read-outs that look alike come from different tables or passages of the source. Results are given in words; binding and its absence hold for the method and conditions named. In cells and extracts the contact can be indirect. A yes stands for co-enrichment or nearness to the bait. Other partners may have been found. For some of these results: Sequences can lack the tags named with a protein.
T1: C-terminus His6-tagged PNPase (polynucleotide phosphorylase, DR_2063) of D. radiodurans (D. radiodurans) (UniProt Q9RSR1)
T1 sequence: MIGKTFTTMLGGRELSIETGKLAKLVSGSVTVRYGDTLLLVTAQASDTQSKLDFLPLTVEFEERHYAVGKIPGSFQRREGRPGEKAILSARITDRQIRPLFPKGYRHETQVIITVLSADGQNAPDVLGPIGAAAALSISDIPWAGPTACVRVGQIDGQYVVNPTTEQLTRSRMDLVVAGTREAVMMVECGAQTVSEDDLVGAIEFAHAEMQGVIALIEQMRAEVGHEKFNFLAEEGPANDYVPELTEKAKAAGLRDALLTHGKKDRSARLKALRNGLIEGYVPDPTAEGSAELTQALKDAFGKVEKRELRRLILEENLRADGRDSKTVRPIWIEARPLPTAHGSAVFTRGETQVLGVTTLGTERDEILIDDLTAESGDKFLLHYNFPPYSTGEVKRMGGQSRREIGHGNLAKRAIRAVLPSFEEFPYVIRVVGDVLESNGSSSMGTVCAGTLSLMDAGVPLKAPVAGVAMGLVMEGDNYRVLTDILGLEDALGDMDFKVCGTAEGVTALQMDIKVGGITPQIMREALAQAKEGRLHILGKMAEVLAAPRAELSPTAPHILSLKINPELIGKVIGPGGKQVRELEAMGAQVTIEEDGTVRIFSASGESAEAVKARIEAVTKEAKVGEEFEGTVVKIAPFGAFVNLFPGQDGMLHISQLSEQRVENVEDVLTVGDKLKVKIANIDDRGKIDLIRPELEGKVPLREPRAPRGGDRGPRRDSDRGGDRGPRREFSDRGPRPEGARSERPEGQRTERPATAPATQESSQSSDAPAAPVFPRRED

Sequences of proteins named here, by UniProt entry; tags and fusion partners are left off.
UniProt Q9RVV9: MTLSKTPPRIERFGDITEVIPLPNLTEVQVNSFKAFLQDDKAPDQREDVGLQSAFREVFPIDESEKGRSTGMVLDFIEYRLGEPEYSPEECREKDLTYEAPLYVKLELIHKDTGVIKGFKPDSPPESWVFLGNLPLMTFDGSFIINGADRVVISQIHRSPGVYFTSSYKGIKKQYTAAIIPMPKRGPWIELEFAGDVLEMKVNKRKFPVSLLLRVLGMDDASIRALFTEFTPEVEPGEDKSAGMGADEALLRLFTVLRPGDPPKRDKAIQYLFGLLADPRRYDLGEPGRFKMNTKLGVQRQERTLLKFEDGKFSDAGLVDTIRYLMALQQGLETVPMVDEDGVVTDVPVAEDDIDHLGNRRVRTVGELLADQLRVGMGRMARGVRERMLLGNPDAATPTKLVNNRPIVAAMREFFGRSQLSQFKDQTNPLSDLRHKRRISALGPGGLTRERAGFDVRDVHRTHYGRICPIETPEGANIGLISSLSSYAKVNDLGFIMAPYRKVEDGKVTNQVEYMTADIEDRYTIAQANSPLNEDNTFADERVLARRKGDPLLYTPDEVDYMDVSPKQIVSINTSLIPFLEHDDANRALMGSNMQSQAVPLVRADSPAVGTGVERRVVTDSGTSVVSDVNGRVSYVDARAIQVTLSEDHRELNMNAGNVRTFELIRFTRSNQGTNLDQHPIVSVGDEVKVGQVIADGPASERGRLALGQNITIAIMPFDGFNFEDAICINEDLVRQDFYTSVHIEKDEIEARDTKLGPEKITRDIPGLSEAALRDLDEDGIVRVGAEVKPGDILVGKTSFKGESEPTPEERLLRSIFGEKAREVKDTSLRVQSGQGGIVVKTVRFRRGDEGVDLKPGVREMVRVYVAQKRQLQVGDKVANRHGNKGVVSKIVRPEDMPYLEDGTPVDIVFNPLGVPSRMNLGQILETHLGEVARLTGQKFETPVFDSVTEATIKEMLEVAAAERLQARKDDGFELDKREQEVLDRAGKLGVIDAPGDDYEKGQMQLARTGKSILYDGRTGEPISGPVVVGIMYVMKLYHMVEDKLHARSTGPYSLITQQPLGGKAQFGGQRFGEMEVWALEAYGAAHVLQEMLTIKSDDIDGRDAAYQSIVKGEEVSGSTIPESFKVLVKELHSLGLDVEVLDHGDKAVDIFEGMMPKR
UniProt Q9RVW0: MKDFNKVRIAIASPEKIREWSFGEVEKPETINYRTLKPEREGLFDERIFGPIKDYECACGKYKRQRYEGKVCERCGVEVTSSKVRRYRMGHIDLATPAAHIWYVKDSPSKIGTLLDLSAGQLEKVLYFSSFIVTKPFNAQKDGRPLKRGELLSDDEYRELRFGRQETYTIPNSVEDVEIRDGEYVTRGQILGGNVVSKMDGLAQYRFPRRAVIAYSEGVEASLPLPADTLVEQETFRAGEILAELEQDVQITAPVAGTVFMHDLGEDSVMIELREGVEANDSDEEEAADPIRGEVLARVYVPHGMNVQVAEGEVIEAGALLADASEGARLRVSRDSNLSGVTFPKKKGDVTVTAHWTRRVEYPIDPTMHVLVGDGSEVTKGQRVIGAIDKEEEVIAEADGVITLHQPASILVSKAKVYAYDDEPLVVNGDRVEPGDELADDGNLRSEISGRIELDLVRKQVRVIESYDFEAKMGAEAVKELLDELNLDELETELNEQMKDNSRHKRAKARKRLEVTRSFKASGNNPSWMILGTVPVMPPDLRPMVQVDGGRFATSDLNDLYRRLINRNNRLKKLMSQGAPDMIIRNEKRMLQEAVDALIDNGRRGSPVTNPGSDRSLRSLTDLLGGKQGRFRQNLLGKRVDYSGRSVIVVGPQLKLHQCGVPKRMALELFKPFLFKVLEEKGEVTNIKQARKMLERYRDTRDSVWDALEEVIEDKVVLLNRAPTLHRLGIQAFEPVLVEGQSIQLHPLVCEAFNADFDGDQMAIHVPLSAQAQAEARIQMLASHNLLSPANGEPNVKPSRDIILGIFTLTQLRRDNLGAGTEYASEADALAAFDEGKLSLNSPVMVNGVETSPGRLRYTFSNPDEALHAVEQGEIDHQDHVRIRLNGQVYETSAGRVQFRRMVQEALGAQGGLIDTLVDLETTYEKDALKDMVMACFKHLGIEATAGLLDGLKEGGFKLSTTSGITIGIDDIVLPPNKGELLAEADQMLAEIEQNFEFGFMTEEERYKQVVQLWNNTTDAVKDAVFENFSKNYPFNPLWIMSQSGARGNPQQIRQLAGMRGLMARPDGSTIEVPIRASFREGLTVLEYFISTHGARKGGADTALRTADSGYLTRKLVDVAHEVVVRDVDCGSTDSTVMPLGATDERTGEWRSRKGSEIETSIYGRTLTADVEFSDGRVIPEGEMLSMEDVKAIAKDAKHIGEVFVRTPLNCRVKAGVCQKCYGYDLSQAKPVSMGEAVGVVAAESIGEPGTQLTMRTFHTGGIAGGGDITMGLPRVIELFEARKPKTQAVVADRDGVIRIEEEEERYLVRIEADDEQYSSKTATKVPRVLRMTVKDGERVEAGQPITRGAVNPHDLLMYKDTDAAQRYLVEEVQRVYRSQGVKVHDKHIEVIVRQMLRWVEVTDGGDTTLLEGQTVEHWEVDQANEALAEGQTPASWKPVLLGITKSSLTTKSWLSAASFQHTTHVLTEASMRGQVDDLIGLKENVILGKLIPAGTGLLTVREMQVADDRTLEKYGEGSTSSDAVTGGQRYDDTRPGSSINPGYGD

B1: RNase J (DR_2417/Rnj), endogenous (enzyme, UniProt H9CZL7 1-559)
chain: MTRPEQPRPESADLPAPTLEVIPLGGMGEIGKNITVFRYGDEIVVVDGGLAFPKAHQMGIDLIVPRIDYLLEHQDKIKGWILTHGHEDHIGGLPYIFARLPRVPVYGLPLTLALVREKLSEFGLQDVDLREVTYGDEVRFGQSFVAEFFCMTHSIPDNAGYILKTPVGDVLHTGDFKIDPDVGTGAGIVSDLERVEQAGKDGVLLLISDSTNAERPGHTPSEAEIARNLEEIIKGCRGRVFLTTFASQVYRIQNILDLAHRQGRRVVMEGRSMIKYAQAAQATGHMNPPEPFLTSEEVGELQDQQVLFVCTGSQGQPMAVLGRLAFGTHAKIALRRGDTVILSSNPIPGNEDAVNLIVNRLYEIGVDVVYPPTYRVHASGHASQEELATILNLTRPKFFLPWHGEPRHQINHAKLAQTLPRPPKRTLIAKNGDIVNLGPDEFRVSGTVAAGAVYVDGLGVGDVNDDVLLDRVNLSQEGLLILTAVLHPTPHVEVVARGFARPNRDLELQIRRVALEAVEQGLREKKRLEDVRDDMYGAVRRFTRKATGRNPVLIPMIVD
B2: PNPase (polynucleotide phosphorylase, DR_2063), endogenous (enzyme, UniProt Q9RSR1 1-779)
chain: MIGKTFTTMLGGRELSIETGKLAKLVSGSVTVRYGDTLLLVTAQASDTQSKLDFLPLTVEFEERHYAVGKIPGSFQRREGRPGEKAILSARITDRQIRPLFPKGYRHETQVIITVLSADGQNAPDVLGPIGAAAALSISDIPWAGPTACVRVGQIDGQYVVNPTTEQLTRSRMDLVVAGTREAVMMVECGAQTVSEDDLVGAIEFAHAEMQGVIALIEQMRAEVGHEKFNFLAEEGPANDYVPELTEKAKAAGLRDALLTHGKKDRSARLKALRNGLIEGYVPDPTAEGSAELTQALKDAFGKVEKRELRRLILEENLRADGRDSKTVRPIWIEARPLPTAHGSAVFTRGETQVLGVTTLGTERDEILIDDLTAESGDKFLLHYNFPPYSTGEVKRMGGQSRREIGHGNLAKRAIRAVLPSFEEFPYVIRVVGDVLESNGSSSMGTVCAGTLSLMDAGVPLKAPVAGVAMGLVMEGDNYRVLTDILGLEDALGDMDFKVCGTAEGVTALQMDIKVGGITPQIMREALAQAKEGRLHILGKMAEVLAAPRAELSPTAPHILSLKINPELIGKVIGPGGKQVRELEAMGAQVTIEEDGTVRIFSASGESAEAVKARIEAVTKEAKVGEEFEGTVVKIAPFGAFVNLFPGQDGMLHISQLSEQRVENVEDVLTVGDKLKVKIANIDDRGKIDLIRPELEGKVPLREPRAPRGGDRGPRRDSDRGGDRGPRREFSDRGPRPEGARSERPEGQRTERPATAPATQESSQSSDAPAAPVFPRRED
B3: RecA, endogenous (protein, UniProt P42443 1-363)
chain: MSKDATKEISAPTDAKERSKAIETAMSQIEKAFGKGSIMKLGAESKLDVQVVSTGSLSLDLALGVGGIPRGRITEIYGPESGGKTTLALAIVAQAQKAGGTCAFIDAEHALDPVYARALGVNTDELLVSQPDNGEQALEIMELLVRSGAIDVVVVDSVAALTPRAEIEGDMGDSLPGLQARLMSQALRKLTAILSKTGTAAIFINQVREKIGVMYGNPETTTGGRALKFYASVRLDVRKIGQPTKVGNDAVANTVKIKTVKNKVAAPFKEVELALVYGKGFDQLSDLVGLAADMDIIKKAGSFYSYGDERIGQGKEKTIAYIAERPEMEQEIRDRVMAAIRAGNAGEAPALAPAPAAPEAAEA
B4: Ssb, endogenous (protein, UniProt Q9RY51 1-301)
chain: MARGMNHVYLIGALARDPELRYTGNGMAVFEATVAGEDRVIGNDGRERNLPWYHRVSILGKPAEWQAERNLKGGDAVVVEGTLEYRQWEAPEGGKRSAVNVKALRMEQLGTQPELIQDAGGGVRMSGAMNEVLVLGNVTRDPEIRYTPAGDAVLSLSIAVNENYQDRQGQRQEKVHYIDATLWRDLAENMKELRKGDPVMIMGRLVNEGWTDKDGNKRNSTRVEATRVEALARGAGNANSGYAAATPAAPRTQTASSAARPTSGGYQSQPSRAANTGSRSGGLDIDQGLDDFPPEEDDLPF
B5: DNA-directed RNA polymerase subunit RpoA, endogenous (protein, UniProt Q9RSJ6 1-341)
chain: MEQKRPQLKARVDGDYGEFVLEPLARGYGVTIGNPIRRILMSSIPGTAVTSVYIEDVLHEFSTIPGVREDVIRLILNLKELVVKFHAPGPKTLTLRAQGEGEVRASAFEVPTDAEIVNPDLVIANLAEDGKLVMEVRVEEGEGYVSADKHATKDRINSIPVDAMFSPVRRVAYHVENTRVGQQTDLDRLILRVWTDGSAGPQEALDKAVEILRDELSVFGNVEPMPALESSYAAATPAAVYDPATATLPASVYDSPRQPDLGSLSINPQPFPTDQDTPRVTLEGLGLTTRVLHSLKEEGIDSVDALCALSDRDLKKVPGIGERSLDEIKQQLAQFGLALRD

Key:
Experiment in all cases: affinity purification with mass spectrometry; C-terminal His6-tagged bait (PNPase or RhlB) expressed from pRADgro in D. radiodurans R1; cells cross-linked with 1% formaldehyde, sonicated; 500 μg lysate on Ni-NTA magnetic beads, 30 min at room temperature; washed with 20 mM imidazole, 300 mM NaCl, pH 7.4; eluted with 500 mM imidazole; LC-MS/MS; enrichment against a strain expressing only the His6 tag
[1] = biological target: T1, C-terminus His6-tagged PNPase (polynucleotide phosphorylase, DR_2063) of D. radiodurans (D. radiodurans)
[2] = biological target: T1, C-terminus His6-tagged PNPase (polynucleotide phosphorylase, DR_2063) of D. radiodurans (D. radiodurans); remark: listed apart in the source
[3] = biological target: C-terminus His6-tagged RhlB (DEAD box RNA helicase, DR_0335) of D. radiodurans (D. radiodurans)

| Molecule | binding [2] | further results |
| --- | --- | --- |
| DNA-directed RNA polymerase subunit RpoB, endogenous (from UniProt Q9RVV9 1-1159) | – | binding [1]: binds |
| DNA-directed RNA polymerase subunit RpoC, endogenous (from UniProt Q9RVW0 1-1546) | – | binding [1]: binds |
| B1 | binds | – |
| B2 | – | binding [3]: binds |
| B3 | binds | – |
| B4 | binds | – |
| B5 | binds | – |

Source: PMC9430589
